Test results as given in PubChem BioAssay AID493014 (National Center for Advancing Translational Sciences (NCATS), 2011).
The list shows a part of the results. The main result of the screen is listed elsewhere. These columns were measured beside it and carry no call. The list favours compounds with an active or inconclusive main result. Potencies come from curve fits of mixed quality, noted in brackets.

Test: qHTS Assay to Find Inhibitors of Chronic Active B-Cell Receptor Signaling
Conditions: ABC-DLBCL IkBa-CBG/CBR reporter, luminescence ratio (green luciferase fused to IkBa over red control in TMD8 lymphoma cells), 4 h
Procedure, shortened: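 Cell line TMD8 (human ABC DLBCL), stably expressing tet-inducible CBG68-IkBa fusion and CBR; IMDM/0.5% FBS; cpd up to 46 uM; dox induction, 4 h, 37C/5% CO2; dual luminescence; green/red ratio; MG132 control.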

[1] = measured here: CBR red luminescence, cell number
[2] = measured here: IkBa-CBG green luminescence

SMILES	AC50 [1]	AC50 [2]
O=C(Nc1ccc(Cl)cc1)Nc1ccon1	0.355 µM [rising, full curve, poor fit]	
Nc1ncnc2c1ncn2[C@@H]1O[C@H](CNCc2cccc(C#Cc3ccccc3)c2)[C@@H](O)[C@H]1O	13 µM [rising, partial curve]	9.2 µM [falling, partial curve]
CCOc1ccccc1NC(=O)COn1nnc2ccc(Cl)cc21	35.5 µM [falling, single point]	
c1cc2c3c(cccc3c1)NC1(CCC3(CC1)Nc1cccc4cccc(c14)N3)N2	11.2 µM [falling, partial curve]	
Cc1nc(-c2ccc(C(F)(F)F)cc2)sc1C(=O)NN	0.447 µM [falling, full curve, poor fit]	
CCOC(=O)c1c(C)sc2c1N(C(=O)CCl)c1cc(Cl)ccc1S2	3.55 µM [falling, partial curve]	
CCN(C(=O)Cn1c([N+](=O)[O-])cnc1C)c1ccccc1	31.6 µM [rising, single point]	
CCCN(CC(=O)Nc1ccccc1OC)C(=O)c1ccc(S(=O)(=O)Nc2ccccc2)cc1	29.1 µM [falling, single point]	
CCOc1ccc(CCN2C(=O)c3cccnc3C2=O)cc1OCC	11.2 µM [falling, partial curve]	
COc1cc2cc(NC(C)=O)cc(NCc3ccccc3)c2cc1OC		17.8 µM [falling, partial curve, poor fit]
Nc1nc(-c2ccccc2)cc(C(F)(F)F)n1	25.9 µM [falling, partial curve, poor fit]	
O=C(Nc1cc(Cl)cc(Cl)c1)c1ccc(F)c(S(=O)(=O)NC2CCCC2)c1	35.5 µM [falling, single point]	
O=C(Nc1nccs1)c1cccc(S(=O)(=O)N2CCCC2)c1	1 µM [falling, full curve, poor fit]	
Cc1cccc2nc(-c3ccccc3)nc(N3CCC(O)(c4ccc(Cl)cc4)CC3)c12	16.4 µM [falling, partial curve]	
COc1ccc2nc(SCC(=O)Nc3ccc4c(c3)CCC4)[nH]c2c1	29.1 µM [falling, single point]	
CN(C)S(=O)(=O)Oc1cc(Cl)ccc1C(=O)Nc1ccc(F)cc1F	3.98 µM [rising, partial curve, poor fit]	
Cc1cc(C(=O)CN2CCC(C)CC2)c(C)n1-c1ccc(F)cc1	5.8 µM [falling, partial curve, poor fit]	
Cn1c(=O)[nH]c(=O)c2[nH]c(N(Cc3ccccc3)Cc3ccccc3)nc21	35.5 µM [falling, single point]	
CC(=O)Nc1ccc(S(=O)(=O)NC(C)C(=O)NCCc2ccc(F)cc2)cc1 (stereo not given)	1.58 µM [rising, partial curve]	
O=C(CCl)Nc1ccccc1C(=O)c1ccccc1	22.4 µM [falling, single point]	
COc1ccccc1N1C(=O)CC(Sc2nc(C)cc(C)n2)C1=O (stereo not given)	0.116 µM [rising, single point]	

In the list so far, 2 have a CF3 group.
SMILES	AC50 [1]	AC50 [2]
Cc1nc(-c2ccc(C(F)(F)F)cc2)sc1C(=O)NN	0.447 µM [falling, full curve, poor fit]	
Nc1nc(-c2ccccc2)cc(C(F)(F)F)n1	25.9 µM [falling, partial curve, poor fit]	

(listing goes on)

SMILES	AC50 [1]	AC50 [2]
CCCNC(=O)c1ccc2c(c1)C1C3CCC(C3)C1C(c1ccccc1)N2 (stereo not given)	9.2 µM [falling, partial curve, poor fit]	
C=C(C)Cn1cnc2c(oc3nc4c(cc32)CCCC4)c1=O	3.55 µM [rising, full curve]	
COC(=O)C1=C(C)N(C(C)C)C(=O)C1(NC(C)=O)C(F)(F)F (stereo not given)	20.6 µM [rising, single point]	
C/C(=N\NC(=O)c1nn(C)cc1Br)c1ccc(NC(=O)c2ccncc2)cc1	23.1 µM [falling, single point]	
N#C/C(=C\c1ccc([N+](=O)[O-])cc1)C(=O)Nc1ccccc1O	2.06 µM [falling, full curve, poor fit]	
COc1ccc(OCCSc2ncc(CO)n2C)cc1	0.316 µM [rising, full curve, poor fit]	
Cc1cc([N+](=O)[O-])nn1CC(=O)N/N=C/c1ccc(O)cc1O	8.91 µM [falling, partial curve, poor fit]	
COc1cc(C(=O)OCc2ccccc2C#N)ccc1OCC(=O)N1CCOCC1	11.6 µM [rising, partial curve]	
C=CC[C@@H](Cc1ccc(F)cc1)C(=O)OC[C@H]1CCCN1C(=O)[C@H](CC=C)CC(=O)N[C@H](CO)Cc1ccccc1	20.6 µM [falling, single point]	
CN1CCN(C(=O)/C(=C/c2ccco2)NC(=O)c2ccccc2)CC1	20 µM [rising, partial curve, poor fit]	
Cc1cc(S(=O)(=O)N(Cc2ccccc2)Cc2ccc(N(C)C)cc2)ccc1-n1cnnn1	0.231 µM [falling, full curve, poor fit]	
Cc1nnc(SCc2ccc(C(=O)c3ccc(Cl)cc3)o2)n1-c1ccccc1	20.6 µM [falling, single point]	29.1 µM [rising, partial curve, poor fit]
COC(=O)C1=C(C)N=C2SCCC(=O)N2C1/C=C/c1ccccc1 (stereo not given)	14.1 µM [rising, single point]	
COc1cccc(-c2nnc(SCc3ccccn3)n2C)c1	16.4 µM [falling, single point]	
CC(C)c1[nH]nc2c1C(c1ccco1)C(C#N)=C(N)O2 (stereo not given)	5.62 µM [falling, single point]	35.5 µM [falling, single point]
Cc1ccc(C)c(NC(=O)c2ccccc2O)c1	6.31 µM [rising, partial curve, poor fit]	
CC(=O)Nc1ccc(/C=N/Nc2nc3ccccc3s2)cc1	17.8 µM [falling, single point]	
COc1ccc(CSc2nnc(N)s2)cc1F	35.5 µM [rising, single point]	
O=C(N/N=C/c1ccc(Cl)cc1)c1cc(-c2cccnc2)nc2ccccc12		3.16 µM [falling, single point]
S=c1nc(-c2ccco2)[nH][nH]1	6.51 µM [rising, full curve]	
O=C(Nc1cnccn1)c1csc2ccccc12	16.4 µM [falling, single point]	

SMILES	AC50 [1]	AC50 [2]
COC(=O)c1ccc(C(=O)OC)c(NC(=O)COC(=O)C23CC4CC(CC(O)(C4)C2)C3)c1	14.6 µM [rising, partial curve, poor fit]	
COCCNC(=O)NC1(C(F)(F)F)Oc2ccc(Cl)cc2O1 (stereo not given)	3.55 µM [rising, full curve]	
CN(C(=O)CCOc1ccccc1)c1c(N)n(Cc2ccccc2)c(=O)[nH]c1=O	20.6 µM [falling, single point]	
CCCc1cc(=O)oc2c3c(c(Cl)cc12)OCN(CCCO)C3	0.178 µM [falling, full curve, poor fit]	
Cc1ccc(NC(=O)CSc2ncn[nH]2)cc1S(=O)(=O)N1CCOCC1	11.2 µM [rising, partial curve]	
O=C(Nc1cccc(S(=O)(=O)NC2=NCCC2)c1)c1cn(-c2ccccc2)nc1-c1ccc(F)cc1	16.4 µM [falling, partial curve, poor fit]	
COc1ccccc1Nc1nn2c(=O)c3ccc(C(=O)NCc4cccs4)cc3nc2s1	7.94 µM [falling, partial curve]	
Cc1nn(C(C)C)c(C)c1CN1CCC(C(=O)Nc2cccc(-c3cccc(F)c3)c2)CC1	12.6 µM [falling, partial curve]	
COc1ccccc1/C=C/C=N/n1c(-c2ccccn2)n[nH]c1=S	14.1 µM [falling, partial curve]	
COc1ccc2c(c1)OC[C@H]1[C@H]2N2C(=O)c3cc(OC)c(OC)cc3NC(=O)[C@@]2(C)[C@H]1c1ccccc1	2.06 µM [rising, partial curve, poor fit]	
Cc1cccc(C)c1OC(=O)Cc1ccccc1[N+](=O)[O-]	7.08 µM [rising, partial curve, poor fit]	
N#Cc1cccc(NC(=O)CSc2ccccc2)c1	3.66 µM [falling, single point]	
COc1ccc(Cn2nnnc2C(c2cc3cc(C)ccc3[nH]c2=O)N2CCOCC2)cc1 (stereo not given)	12.6 µM [falling, partial curve]	
Cc1cc(C(=O)NNC(=O)CN2C(=O)NC(C)(c3ccccc3)C2=O)c(C)o1 (stereo not given)	18.4 µM [falling, single point]	
COc1cc(OC)cc(C(=O)N[C@H](C(=O)OCC(=O)c2ccc(C)c([N+](=O)[O-])c2)C(C)C)c1		4.11 µM [rising, partial curve, poor fit]
Cc1ccc(S(=O)(=O)N2[C@@H](c3ccc(Br)cc3)C(C(=O)O)=C[C@H]2CC2CCCC2)cc1	0.651 µM [falling, partial curve, poor fit]	
CCOC(=O)C1=C(C)Nc2sc(C(=O)c3ccc(Br)cc3)c(N)c2C1c1ccc(C(=O)OC)cc1 (stereo not given)	0.164 µM [rising, full curve, poor fit]	
NS(=O)(=O)c1ccc(N=Cc2c(O)c3ccccc3oc2=O)cc1	5.01 µM [falling, full curve]	
COC(=O)C1=C(C)NC2=C(C(=O)CCC2)C1c1coc2ccccc2c1=O (stereo not given)	23.1 µM [rising, partial curve]	32.6 µM [falling, partial curve, poor fit]
